Some of the results follow.

By UniProt entry, the sequences of proteins in these tests, tags left out. Where a name states a change or a piece, a line headed by the entry shows the natural chain unless it says otherwise.
UniProt P07099: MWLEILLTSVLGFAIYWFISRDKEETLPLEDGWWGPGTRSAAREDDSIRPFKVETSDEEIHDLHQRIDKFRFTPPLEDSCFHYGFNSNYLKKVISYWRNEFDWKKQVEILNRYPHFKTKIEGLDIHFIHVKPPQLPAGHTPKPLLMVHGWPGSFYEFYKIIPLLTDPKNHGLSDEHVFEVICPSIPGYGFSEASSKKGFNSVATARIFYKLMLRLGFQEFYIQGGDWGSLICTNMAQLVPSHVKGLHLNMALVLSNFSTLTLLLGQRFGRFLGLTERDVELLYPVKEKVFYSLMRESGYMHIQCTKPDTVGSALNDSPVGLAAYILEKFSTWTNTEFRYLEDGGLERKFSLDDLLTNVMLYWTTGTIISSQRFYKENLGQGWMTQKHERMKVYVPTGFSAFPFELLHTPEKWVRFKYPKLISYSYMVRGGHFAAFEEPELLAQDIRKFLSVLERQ
UniProt Q96A26: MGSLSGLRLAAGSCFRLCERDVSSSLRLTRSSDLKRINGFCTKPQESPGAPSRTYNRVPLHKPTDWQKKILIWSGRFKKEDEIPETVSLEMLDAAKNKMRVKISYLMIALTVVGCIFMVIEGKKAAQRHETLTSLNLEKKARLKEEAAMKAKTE
UniProt P13804: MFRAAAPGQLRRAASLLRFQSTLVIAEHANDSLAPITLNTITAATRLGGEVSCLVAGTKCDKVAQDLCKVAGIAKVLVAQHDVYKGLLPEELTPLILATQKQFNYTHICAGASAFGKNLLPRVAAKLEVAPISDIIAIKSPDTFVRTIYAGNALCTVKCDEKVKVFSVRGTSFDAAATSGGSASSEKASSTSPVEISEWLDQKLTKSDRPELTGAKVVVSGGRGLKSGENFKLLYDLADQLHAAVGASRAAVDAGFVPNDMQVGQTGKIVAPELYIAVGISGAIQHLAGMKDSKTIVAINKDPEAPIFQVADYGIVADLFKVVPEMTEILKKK
UniProt Q9UNN5: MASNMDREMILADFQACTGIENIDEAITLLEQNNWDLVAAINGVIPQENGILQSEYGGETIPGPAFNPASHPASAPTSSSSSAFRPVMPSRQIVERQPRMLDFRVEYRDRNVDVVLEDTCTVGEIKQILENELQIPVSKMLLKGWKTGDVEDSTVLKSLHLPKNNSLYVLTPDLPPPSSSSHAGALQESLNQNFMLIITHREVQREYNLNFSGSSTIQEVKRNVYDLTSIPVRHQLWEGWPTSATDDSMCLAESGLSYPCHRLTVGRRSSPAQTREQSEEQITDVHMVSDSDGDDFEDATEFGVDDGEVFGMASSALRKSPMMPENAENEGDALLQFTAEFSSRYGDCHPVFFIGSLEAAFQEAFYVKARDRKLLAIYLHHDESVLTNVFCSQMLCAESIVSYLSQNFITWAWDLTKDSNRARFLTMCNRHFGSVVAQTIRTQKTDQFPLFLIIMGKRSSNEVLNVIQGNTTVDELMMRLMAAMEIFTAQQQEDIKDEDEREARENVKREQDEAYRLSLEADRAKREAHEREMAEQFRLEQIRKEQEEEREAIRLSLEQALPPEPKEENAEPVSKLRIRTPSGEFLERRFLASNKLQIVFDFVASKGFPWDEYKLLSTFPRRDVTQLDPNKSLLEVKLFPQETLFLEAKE
UniProt Q9Y3B2, whole entry, looked up: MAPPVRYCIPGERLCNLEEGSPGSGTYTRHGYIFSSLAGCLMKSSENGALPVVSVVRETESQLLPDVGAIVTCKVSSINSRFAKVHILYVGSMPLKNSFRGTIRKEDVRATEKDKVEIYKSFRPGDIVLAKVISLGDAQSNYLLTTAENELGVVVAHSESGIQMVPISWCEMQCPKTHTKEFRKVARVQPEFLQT
UniProt Q96A65: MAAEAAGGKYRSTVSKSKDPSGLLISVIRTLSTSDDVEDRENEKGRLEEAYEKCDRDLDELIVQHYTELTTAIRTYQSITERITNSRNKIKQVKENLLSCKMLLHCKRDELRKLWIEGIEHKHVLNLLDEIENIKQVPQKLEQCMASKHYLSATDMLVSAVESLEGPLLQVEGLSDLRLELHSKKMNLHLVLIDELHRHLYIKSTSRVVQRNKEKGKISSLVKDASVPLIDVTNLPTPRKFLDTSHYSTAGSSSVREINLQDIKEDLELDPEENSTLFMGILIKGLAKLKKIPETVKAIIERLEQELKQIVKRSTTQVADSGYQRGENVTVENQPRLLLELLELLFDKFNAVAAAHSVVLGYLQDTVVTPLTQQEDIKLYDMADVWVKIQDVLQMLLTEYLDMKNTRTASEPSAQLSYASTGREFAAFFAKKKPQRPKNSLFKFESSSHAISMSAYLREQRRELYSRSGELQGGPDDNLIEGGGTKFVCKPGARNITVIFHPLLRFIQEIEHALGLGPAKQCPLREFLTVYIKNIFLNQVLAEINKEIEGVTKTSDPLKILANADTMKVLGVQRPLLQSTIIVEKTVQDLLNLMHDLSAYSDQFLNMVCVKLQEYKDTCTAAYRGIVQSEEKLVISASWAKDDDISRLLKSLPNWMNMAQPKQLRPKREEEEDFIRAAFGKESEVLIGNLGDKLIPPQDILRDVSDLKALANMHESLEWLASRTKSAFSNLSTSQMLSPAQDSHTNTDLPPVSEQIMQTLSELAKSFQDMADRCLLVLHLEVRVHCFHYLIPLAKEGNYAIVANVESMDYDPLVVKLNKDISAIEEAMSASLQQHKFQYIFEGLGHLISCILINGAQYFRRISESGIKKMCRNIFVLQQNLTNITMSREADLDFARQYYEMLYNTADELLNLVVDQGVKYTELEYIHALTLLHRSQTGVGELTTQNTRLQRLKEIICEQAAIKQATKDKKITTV
UniProt O94905: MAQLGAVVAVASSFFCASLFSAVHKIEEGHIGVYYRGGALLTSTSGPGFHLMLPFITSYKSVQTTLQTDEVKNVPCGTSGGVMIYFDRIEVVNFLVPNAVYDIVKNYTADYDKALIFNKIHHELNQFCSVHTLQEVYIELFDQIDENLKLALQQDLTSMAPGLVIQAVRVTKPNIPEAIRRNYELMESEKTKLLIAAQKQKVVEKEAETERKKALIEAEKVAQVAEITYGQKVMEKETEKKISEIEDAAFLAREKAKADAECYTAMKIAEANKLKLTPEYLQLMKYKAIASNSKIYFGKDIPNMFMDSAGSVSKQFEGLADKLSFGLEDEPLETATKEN
UniProt Q9HBU6: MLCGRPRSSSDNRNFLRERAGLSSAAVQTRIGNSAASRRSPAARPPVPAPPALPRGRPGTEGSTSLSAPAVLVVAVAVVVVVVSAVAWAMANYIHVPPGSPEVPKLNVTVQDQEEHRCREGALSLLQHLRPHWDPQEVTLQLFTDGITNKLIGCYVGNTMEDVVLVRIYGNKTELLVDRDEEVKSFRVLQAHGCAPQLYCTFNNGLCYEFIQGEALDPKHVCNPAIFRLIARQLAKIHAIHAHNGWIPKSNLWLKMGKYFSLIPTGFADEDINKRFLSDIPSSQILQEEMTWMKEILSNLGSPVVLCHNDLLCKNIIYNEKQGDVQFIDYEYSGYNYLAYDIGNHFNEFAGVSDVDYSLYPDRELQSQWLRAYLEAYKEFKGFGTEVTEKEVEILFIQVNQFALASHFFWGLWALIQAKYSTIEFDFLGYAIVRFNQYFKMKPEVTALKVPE
UniProt Q96PL5: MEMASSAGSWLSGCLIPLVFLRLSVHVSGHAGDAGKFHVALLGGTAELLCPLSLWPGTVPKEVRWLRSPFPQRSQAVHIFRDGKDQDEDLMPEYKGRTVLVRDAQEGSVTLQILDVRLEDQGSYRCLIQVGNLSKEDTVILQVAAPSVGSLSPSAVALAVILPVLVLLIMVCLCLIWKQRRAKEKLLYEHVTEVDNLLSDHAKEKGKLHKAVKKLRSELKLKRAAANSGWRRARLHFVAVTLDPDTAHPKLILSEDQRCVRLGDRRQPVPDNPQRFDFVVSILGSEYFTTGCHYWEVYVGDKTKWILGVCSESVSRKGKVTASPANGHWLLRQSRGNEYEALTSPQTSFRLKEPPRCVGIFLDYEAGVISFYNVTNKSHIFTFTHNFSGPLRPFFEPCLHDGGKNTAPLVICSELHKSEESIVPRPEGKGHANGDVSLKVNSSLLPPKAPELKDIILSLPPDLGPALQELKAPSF
UniProt Q0VG06: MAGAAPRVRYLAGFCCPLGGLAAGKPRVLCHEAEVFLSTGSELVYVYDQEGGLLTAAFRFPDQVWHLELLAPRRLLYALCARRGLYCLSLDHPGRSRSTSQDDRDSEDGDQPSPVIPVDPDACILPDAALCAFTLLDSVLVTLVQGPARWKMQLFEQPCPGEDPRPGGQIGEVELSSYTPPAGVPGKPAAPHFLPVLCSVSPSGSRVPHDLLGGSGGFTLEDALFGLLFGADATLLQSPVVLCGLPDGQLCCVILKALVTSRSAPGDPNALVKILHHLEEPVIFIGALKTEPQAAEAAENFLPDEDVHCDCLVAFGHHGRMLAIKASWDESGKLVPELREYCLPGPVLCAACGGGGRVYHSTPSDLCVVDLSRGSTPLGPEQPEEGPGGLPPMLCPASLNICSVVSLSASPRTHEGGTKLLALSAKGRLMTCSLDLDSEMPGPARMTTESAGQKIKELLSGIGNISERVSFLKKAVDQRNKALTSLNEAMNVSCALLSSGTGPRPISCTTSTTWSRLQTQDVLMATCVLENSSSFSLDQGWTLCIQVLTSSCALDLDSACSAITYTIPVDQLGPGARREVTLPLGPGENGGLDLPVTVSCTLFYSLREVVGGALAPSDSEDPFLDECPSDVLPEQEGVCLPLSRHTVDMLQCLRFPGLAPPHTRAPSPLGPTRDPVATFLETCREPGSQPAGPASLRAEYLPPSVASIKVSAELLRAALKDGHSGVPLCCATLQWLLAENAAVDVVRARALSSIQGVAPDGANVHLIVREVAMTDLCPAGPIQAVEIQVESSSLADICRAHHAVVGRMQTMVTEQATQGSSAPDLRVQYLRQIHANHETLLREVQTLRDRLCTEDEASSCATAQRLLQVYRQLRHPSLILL
UniProt Q03468, whole entry, looked up: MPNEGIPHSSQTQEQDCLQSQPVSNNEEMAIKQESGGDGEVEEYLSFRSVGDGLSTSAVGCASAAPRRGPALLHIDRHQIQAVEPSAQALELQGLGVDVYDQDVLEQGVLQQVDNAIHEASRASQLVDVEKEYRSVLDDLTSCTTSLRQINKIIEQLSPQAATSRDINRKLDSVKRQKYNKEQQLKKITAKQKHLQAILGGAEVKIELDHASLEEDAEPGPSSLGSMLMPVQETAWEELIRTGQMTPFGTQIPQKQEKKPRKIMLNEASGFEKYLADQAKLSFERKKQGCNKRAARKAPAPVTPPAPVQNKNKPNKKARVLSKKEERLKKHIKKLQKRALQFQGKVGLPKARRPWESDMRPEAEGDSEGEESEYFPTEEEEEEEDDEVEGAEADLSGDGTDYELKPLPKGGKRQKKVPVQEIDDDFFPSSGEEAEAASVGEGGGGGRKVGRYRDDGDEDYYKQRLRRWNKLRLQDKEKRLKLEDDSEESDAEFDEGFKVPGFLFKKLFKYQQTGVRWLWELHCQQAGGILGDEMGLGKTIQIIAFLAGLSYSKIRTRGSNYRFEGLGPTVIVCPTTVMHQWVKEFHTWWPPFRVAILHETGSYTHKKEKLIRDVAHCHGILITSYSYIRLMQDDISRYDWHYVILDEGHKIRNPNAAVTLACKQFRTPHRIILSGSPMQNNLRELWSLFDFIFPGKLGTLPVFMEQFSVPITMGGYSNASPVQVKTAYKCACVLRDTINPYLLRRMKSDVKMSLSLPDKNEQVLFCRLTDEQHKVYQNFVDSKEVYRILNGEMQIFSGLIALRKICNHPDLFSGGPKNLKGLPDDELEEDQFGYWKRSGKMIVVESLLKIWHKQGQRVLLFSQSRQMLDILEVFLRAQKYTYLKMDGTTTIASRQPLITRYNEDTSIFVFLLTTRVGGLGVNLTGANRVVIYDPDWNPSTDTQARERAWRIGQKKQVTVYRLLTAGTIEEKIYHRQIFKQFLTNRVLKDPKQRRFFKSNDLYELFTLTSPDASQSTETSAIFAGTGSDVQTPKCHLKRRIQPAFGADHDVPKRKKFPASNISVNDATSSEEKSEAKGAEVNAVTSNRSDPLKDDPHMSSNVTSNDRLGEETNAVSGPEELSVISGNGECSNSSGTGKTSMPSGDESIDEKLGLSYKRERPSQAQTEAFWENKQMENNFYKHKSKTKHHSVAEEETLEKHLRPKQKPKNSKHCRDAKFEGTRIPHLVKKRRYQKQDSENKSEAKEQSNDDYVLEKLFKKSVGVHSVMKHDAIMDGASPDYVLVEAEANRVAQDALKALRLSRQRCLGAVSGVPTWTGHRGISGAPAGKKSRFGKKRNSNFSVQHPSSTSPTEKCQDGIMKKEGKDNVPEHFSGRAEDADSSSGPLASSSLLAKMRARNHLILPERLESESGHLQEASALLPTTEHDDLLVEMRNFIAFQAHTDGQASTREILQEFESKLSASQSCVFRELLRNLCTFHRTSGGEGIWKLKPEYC

Compound in the first test: C#Cc1cccc(Nc2ncnc3cc(OCCOC)c(OCCOC)cc23)c1 [erlotinib]
The experiment in a line: log2 fold change, soluble protein after heating vs DMSO (PISA); higher = thermal stabilisation; K562 cells, 10 uM, 30 min; active = over 0.2 and 3.5 SD of the protein, either way, in both replicates (recomputed). Summed up:
(§1)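 Aliquots of K562 cells (2×10^6 cells/mL) treated with 10 μM compound for 30 min were heated for 3 min over 48°C-58°C. After pooling and extraction in PBS with 0.5% NP-40 at 4°C, soluble protein from a 21,000xg, 90 min spin was quantified by TMTpro 16plex LC-MS/MS with channel sums equalised. Thermal stability is expressed against control samples, from duplicates, as a log2 fold change.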
On to EPB41L2 (UniProt O43491), for which the log2 fold change is inactive: -0.015.

As for EPHX1 (UniProt P07099), the log2 fold change is inactive: -0.039.

With F5 (UniProt P12259), the log2 fold change was inactive: -0.122.

EXOSC9 isoform 2 (UniProt Q06265): the log2 fold change was inactive: 0.002.

EVC2 (UniProt Q86UK5): the log2 fold change was inactive: -0.01.

With FAM162A (UniProt Q96A26), the log2 fold change is inactive: -0.005.

With FAH isoform 2 (UniProt P16930), the log2 fold change is inactive: 0.017.

As for ETFA (UniProt P13804), the log2 fold change is inactive: 0.029.

With FAM133B (UniProt Q5BKY9), the log2 fold change is inactive: -0.009.

For FAHD2B (UniProt Q6P2I3), the log2 fold change is inactive: -0.02.

On to FAF1 (UniProt Q9UNN5), for which the log2 fold change was inactive: 0.015.

FAM122A (UniProt Q96E09): the log2 fold change was inactive: 0.095.

On to EXOSC1 (UniProt Q9Y3B2), for which the log2 fold change is inactive: -0.011.

Consider EXOC4 (UniProt Q96A65), for which the log2 fold change is inactive: 0.131.

Take ERLIN2 (UniProt O94905): the log2 fold change is inactive: -0.073.

For ETNK1 (UniProt Q9HBU6), the log2 fold change was inactive: 0.004.

On to ERGIC3 isoform 3 (UniProt Q9Y282), for which the log2 fold change is inactive: 0.009.

EXOC8 (UniProt Q8IYI6): the log2 fold change is inactive: 0.048.

Consider EXOC5 (UniProt O00471), for which the log2 fold change was inactive: 0.054.

As to ERMAP (UniProt Q96PL5), the log2 fold change was inactive: -0.061.

As to FAM120A isoform 6 (UniProt Q9NZB2), the log2 fold change is inactive: -0.152.

In the case of ETF1 (UniProt P62495), the log2 fold change was inactive: 0.07.

For the target ESPL1 (UniProt Q14674), the log2 fold change was inactive: 0.096.

Regarding ERP44 (UniProt Q9BS26), the log2 fold change was inactive: -0.046.

For FAHD2A (UniProt Q96GK7), the log2 fold change is inactive: 0.022.

As to ERLEC1 (UniProt Q96DZ1), the log2 fold change is inactive: 0.023.

For FADS1, A0A0A0MR51, the log2 fold change is inactive: 0.016.

Turning to F11R (UniProt Q9Y624), the log2 fold change was inactive: -0.01.

For the target FAAP100 (UniProt Q0VG06), the log2 fold change was inactive: 0.003.

With ERCC6 (UniProt Q03468), the log2 fold change was inactive: -0.036.

EXOSC4 (UniProt Q9NPD3): the log2 fold change is inactive: 0.016.

As for ESRRA (UniProt P11474), the log2 fold change was inactive: 0.029.

Compound in a further test: C/C(=N\NC(=O)C1=CC(=CC=C1)S(=O)(=O)N2CCOCC2)/C3=C(C=CC(=C3)Cl)O
The description is as above. Summed up:
as §1
For the target EPB41L2 (UniProt O43491), the log2 fold change is inactive: 0.034.

As to EPHX1 (UniProt P07099), the log2 fold change is inactive: 0.051.

F5 (UniProt P12259): the log2 fold change is inactive: 0.

For the target EXOSC9 isoform 2 (UniProt Q06265), the log2 fold change was inactive: -0.03.

On to EVC2 (UniProt Q86UK5), for which the log2 fold change is inactive: -0.044.

As for FAM162A (UniProt Q96A26), the log2 fold change is inactive: 0.069.

As for FAH isoform 2 (UniProt P16930), the log2 fold change is inactive: -0.025.

In the case of ETFA (UniProt P13804), the log2 fold change is inactive: 0.

On to FAM133B (UniProt Q5BKY9), for which the log2 fold change is inactive: -0.004.

FAHD2B (UniProt Q6P2I3): the log2 fold change was inactive: 0.085.

On to FAF1 (UniProt Q9UNN5), for which the log2 fold change is inactive: 0.028.

With FAM122A (UniProt Q96E09), the log2 fold change is inactive: 0.073.

Regarding EXOSC1 (UniProt Q9Y3B2), the log2 fold change was inactive: -0.005.

Regarding EXOC4 (UniProt Q96A65), the log2 fold change is inactive: 0.159.

Turning to ERLIN2 (UniProt O94905), the log2 fold change was inactive: -0.075.

Consider ETNK1 (UniProt Q9HBU6), for which the log2 fold change is inactive: 0.128.

Take ERGIC3 isoform 3 (UniProt Q9Y282): the log2 fold change was inactive: 0.072.

As for EXOC8 (UniProt Q8IYI6), the log2 fold change is inactive: 0.144.

Regarding EXOC5 (UniProt O00471), the log2 fold change is inactive: 0.092.

With ERMAP (UniProt Q96PL5), the log2 fold change was inactive: -0.046.

Consider FAM120A isoform 6 (UniProt Q9NZB2), for which the log2 fold change was inactive: -0.143.

As for ETF1 (UniProt P62495), the log2 fold change was inactive: 0.012.

Regarding ESPL1 (UniProt Q14674), the log2 fold change is inactive: -0.026.

With ERP44 (UniProt Q9BS26), the log2 fold change is inactive: -0.032.

As to FAHD2A (UniProt Q96GK7), the log2 fold change is inactive: 0.024.

For the target ERLEC1 (UniProt Q96DZ1), the log2 fold change is inactive: 0.037.

Regarding FADS1, A0A0A0MR51, the log2 fold change was inactive: -0.11.

For F11R (UniProt Q9Y624), the log2 fold change was inactive: -0.013.

Turning to FAAP100 (UniProt Q0VG06), the log2 fold change is inactive: 0.019.

Consider ERCC6 (UniProt Q03468), for which the log2 fold change was inactive: 0.06.

For the target EXOSC4 (UniProt Q9NPD3), the log2 fold change was inactive: 0.017.

For the target ESRRA (UniProt P11474), the log2 fold change is inactive: 0.028.

Compound in a further test: C1=CC(=C(C=C1Cl)C2=NC3=NC=CN=C3C(=N2)NC4=CC=NC=C4)F
The test is described as above. In short, it runs like this:
as §1
With EPB41L2 (UniProt O43491), the log2 fold change was inactive: 0.022.

For the target EPHX1 (UniProt P07099), the log2 fold change was inactive: 0.007.

F5 (UniProt P12259): the log2 fold change was inactive: -0.002.

Turning to EXOSC9 isoform 2 (UniProt Q06265), the log2 fold change was inactive: 0.025.

On to EVC2 (UniProt Q86UK5), for which the log2 fold change was inactive: -0.013.

Turning to FAM162A (UniProt Q96A26), the log2 fold change is inactive: -0.002.

In the case of FAH isoform 2 (UniProt P16930), the log2 fold change was inactive: 0.171.

ETFA (UniProt P13804): the log2 fold change was inactive: 0.076.

With FAM133B (UniProt Q5BKY9), the log2 fold change was inactive: 0.005.

FAHD2B (UniProt Q6P2I3): the log2 fold change was inactive: 0.131.

Consider FAF1 (UniProt Q9UNN5), for which the log2 fold change is inactive: 0.073.

For FAM122A (UniProt Q96E09), the log2 fold change is inactive: 0.053.

As for EXOSC1 (UniProt Q9Y3B2), the log2 fold change was inactive: -0.155.

On to EXOC4 (UniProt Q96A65), for which the log2 fold change is inactive: 0.044.

For ERLIN2 (UniProt O94905), the log2 fold change was inactive: -0.054.

Regarding ETNK1 (UniProt Q9HBU6), the log2 fold change is inactive: 0.244.

For ERGIC3 isoform 3 (UniProt Q9Y282), the log2 fold change was inactive: 0.049.

In the case of EXOC8 (UniProt Q8IYI6), the log2 fold change is inactive: -0.042.

As for EXOC5 (UniProt O00471), the log2 fold change is inactive: -0.002.

On to ERMAP (UniProt Q96PL5), for which the log2 fold change was inactive: -0.033.

For the target FAM120A isoform 6 (UniProt Q9NZB2), the log2 fold change was inactive: -0.236.

For ETF1 (UniProt P62495), the log2 fold change was inactive: 0.051.

For ESPL1 (UniProt Q14674), the log2 fold change was inactive: -0.425.

Take ERP44 (UniProt Q9BS26): the log2 fold change was inactive: 0.022.

Regarding FAHD2A (UniProt Q96GK7), the log2 fold change was inactive: 0.023.

On to ERLEC1 (UniProt Q96DZ1), for which the log2 fold change was inactive: 0.03.

Turning to FADS1, A0A0A0MR51, the log2 fold change is inactive: -0.049.

Turning to F11R (UniProt Q9Y624), the log2 fold change was inactive: 0.07.

Turning to FAAP100 (UniProt Q0VG06), the log2 fold change was inactive: 0.246.

Regarding ERCC6 (UniProt Q03468), the log2 fold change is inactive: 0.028.

Take EXOSC4 (UniProt Q9NPD3): the log2 fold change was inactive: 0.036.

As to ESRRA (UniProt P11474), the log2 fold change is inactive: -0.022.
